Reference: patent publication US8492378B2, “GSK-3β inhibitor” (Takeda Pharmaceutical Company Limited, priority 2006, dated 2013)
Some entries share one result that the patent states for a list of compounds.

By UniProt entry, the sequences of proteins in these tests, tags left out. Chains listed by the source or under a name are the forms on record and can include a tag or linker.
UniProt P49841, other isoform, or with tags, fused parts or gaps: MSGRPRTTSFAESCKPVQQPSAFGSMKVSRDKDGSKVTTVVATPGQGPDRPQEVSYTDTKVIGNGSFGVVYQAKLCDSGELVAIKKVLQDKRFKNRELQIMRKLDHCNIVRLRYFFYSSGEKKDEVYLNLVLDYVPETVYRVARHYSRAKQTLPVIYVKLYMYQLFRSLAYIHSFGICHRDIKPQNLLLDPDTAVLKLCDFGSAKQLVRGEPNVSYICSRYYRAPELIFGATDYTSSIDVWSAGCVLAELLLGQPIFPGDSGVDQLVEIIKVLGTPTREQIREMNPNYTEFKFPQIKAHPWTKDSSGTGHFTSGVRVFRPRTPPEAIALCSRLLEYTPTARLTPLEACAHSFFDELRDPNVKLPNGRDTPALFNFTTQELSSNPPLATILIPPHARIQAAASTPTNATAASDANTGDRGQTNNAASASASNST

Biological target: GSK-3β (Homo sapiens, UniProt P49841)
Experiment: GSK-3β inhibitory activity evaluation (Kinase Glo luminescence)
Type: biochemical
Parameters: FLAG (N); made in house; host or cells: Sf-21 insect cells, recombinant baculovirus (pFASTBAC1, BAC-TO-BAC)
Settings: recombinant human GSK-3β, read-out: IC50 value (GSK-3β inhibition)

CSc1ccc(CSc2nnc(-c3ccc4c(c3)CCO4)o2)cc1C(F)(F)F [Example 256, 2-(2,3-dihydro-1-benzofuran-5-yl)-5-[[4-(methylthio)-3-(trifluoromethyl)benzyl]thio]-1,3,4-oxadiazole]
IC50: ≤ 100 nM

C[S+]([O-])c1ccc(CSc2nnc(-c3ccc4c(c3)CCO4)o2)cc1C(F)(F)F (stereo not drawn) [Example 257, 2-(2,3-dihydro-1-benzofuran-5-yl)-5-[[4-(methylsulfinyl)-3-(trifluoromethyl)benzyl]thio]-1,3,4-oxadiazole]
IC50: ≤ 100 nM

Cc1nnc(-c2ccc3occ(-c4ccc([S+]([O-])C(C)C)cc4)c3c2)o1 (stereo not drawn) [Example 264, 2-[3-[4-(isopropylsulfinyl)phenyl]-1-benzofuran-5-yl]-5-methyl-1,3,4-oxadiazole]
IC50: ≤ 100 nM

Cc1nnc(-c2ccc3occ(-c4ccc(S(=O)(=O)C(C)C)cc4)c3c2)o1 [Example 265, 2-[3-[4-(isopropylsulfonyl)phenyl]-1-benzofuran-5-yl]-5-methyl-1,3,4-oxadiazole]
IC50: ≤ 100 nM

CCC[S+]([O-])c1ccc(-c2coc3ccc(-c4nnc(C)o4)cc23)cc1 (stereo not drawn) [Example 267, 2-methyl-5-[3-[4-(propylsulfinyl)phenyl]-1-benzofuran-5-yl]-1,3,4-oxadiazole]
IC50: ≤ 100 nM

CCCS(=O)(=O)c1ccc(-c2coc3ccc(-c4nnc(C)o4)cc23)cc1 [Example 268, 2-methyl-5-[3-[4-(propylsulfonyl)phenyl]-1-benzofuran-5-yl]-1,3,4-oxadiazole]
IC50: ≤ 100 nM

CCSc1ccc(-c2coc3ccc(-c4nnc(C)o4)cc23)cc1 [Example 269, 2-[3-[4-(ethylthio)phenyl]-1-benzofuran-5-yl]-5-methyl-1,3,4-oxadiazole]
IC50: ≤ 100 nM

CC[S+]([O-])c1ccc(-c2coc3ccc(-c4nnc(C)o4)cc23)cc1 (stereo not drawn) [Example 270, 2-[3-[4-(ethylsulfinyl)phenyl]-1-benzofuran-5-yl]-5-methyl-1,3,4-oxadiazole]
IC50: ≤ 100 nM

CCS(=O)(=O)c1ccc(-c2coc3ccc(-c4nnc(C)o4)cc23)cc1 [Example 271, 2-[3-[4-(ethylsulfonyl)phenyl]-1-benzofuran-5-yl]-5-methyl-1,3,4-oxadiazole]
IC50: ≤ 100 nM

Cc1nnc(-c2ccc3occ(-c4ccc([S+]([O-])C(F)(F)F)cc4)c3c2)o1 (stereo not drawn) [Example 273, 2-methyl-5-[3-[4-[(trifluoromethyl)sulfinyl]phenyl]-1-benzofuran-5-yl]-1,3,4-oxadiazole]
IC50: ≤ 100 nM

Cc1nnc(-c2ccc3occ(-c4ccc(SCF)cc4)c3c2)o1 [Example 274, 2-[3-[4-[(fluoromethyl)thio]phenyl]-1-benzofuran-5-yl]-5-methyl-1,3,4-oxadiazole]
IC50: ≤ 100 nM

Cc1nnc(-c2ccc3occ(-c4ccc([S+]([O-])CF)cc4)c3c2)o1 (stereo not drawn) [Example 275, 2-[3-[4-[(fluoromethyl)sulfinyl]phenyl]-1-benzofuran-5-yl]-5-methyl-1,3,4-oxadiazole]
IC50: ≤ 100 nM

Cc1nnc(-c2ccc3occ(-c4ccc(S(=O)(=O)CF)cc4)c3c2)o1 [Example 276, 2-[3-[4-[(fluoromethyl)sulfonyl]phenyl]-1-benzofuran-5-yl]-5-methyl-1,3,4-oxadiazole]
IC50: ≤ 100 nM

Cc1nnc(-c2ccc3occ(-c4ccc([S+]([O-])Cc5ccccc5)cc4)c3c2)o1 (stereo not drawn) [Example 278, 2-[3-[4-(benzylsulfinyl)phenyl]-1-benzofuran-5-yl]-5-methyl-1,3,4-oxadiazole]
IC50: ≤ 100 nM

Cc1nnc(-c2ccc3occ(-c4ccc(S(=O)(=O)Cc5ccccc5)cc4)c3c2)o1 [Example 279, 2-[3-[4-(benzylsulfonyl)phenyl]-1-benzofuran-5-yl]-5-methyl-1,3,4-oxadiazole]
IC50: ≤ 100 nM

Cc1nnc(-c2ccc3occ(-c4ccc([S+]([O-])Cc5ccccc5C#N)cc4)c3c2)o1 (stereo not drawn) [Example 281, 2-[[[4-[5-(5-methyl-1,3,4-oxadiazol-2-yl)-1-benzofuran-3-yl]phenyl]sulfinyl]methyl]benzonitrile]
IC50: ≤ 100 nM

Cc1nnc(-c2ccc3occ(-c4ccc(S(=O)(=O)Cc5ccccc5C#N)cc4)c3c2)o1 [Example 282, 2-[[[4-[5-(5-methyl-1,3,4-oxadiazol-2-yl)-1-benzofuran-3-yl]phenyl]sulfonyl]methyl]benzonitrile]
IC50: ≤ 100 nM

CSc1ccc(-c2coc3ccc(-c4nnc(C)o4)cc23)cc1OC(F)(F)F [Example 283, 2-methyl-5-[3-[4-(methylthio)-3-(trifluoromethoxy)phenyl]-1-benzofuran-5-yl]-1,3,4-oxadiazole]
IC50: ≤ 100 nM

Cc1nnc(-c2ccc3occ(-c4ccc([S+](C)[O-])c(OC(F)(F)F)c4)c3c2)o1 (stereo not drawn) [Example 284, 2-methyl-5-[3-[4-(methylsulfinyl)-3-(trifluoromethoxy)phenyl]-1-benzofuran-5-yl]-1,3,4-oxadiazole]
IC50: ≤ 100 nM

Cc1nnc(-c2ccc3occ(-c4ccc(S(C)(=O)=O)c(OC(F)(F)F)c4)c3c2)o1 [Example 285, 2-methyl-5-[3-[4-(methylsulfonyl)-3-(trifluoromethoxy)phenyl]-1-benzofuran-5-yl]-1,3,4-oxadiazole]
IC50: ≤ 100 nM

CSc1ccc(-c2coc3ccc(-c4nnc(C)o4)cc23)cc1F [Example 286, 2-[3-[3-fluoro-4-(methylthio)phenyl]-1-benzofuran-5-yl]-5-methyl-1,3,4-oxadiazole]
IC50: ≤ 100 nM

Cc1nnc(-c2ccc3occ(-c4ccc([S+](C)[O-])c(F)c4)c3c2)o1 (stereo not drawn) [Example 287, 2-[3-[3-fluoro-4-(methylsulfinyl)phenyl]-1-benzofuran-5-yl]-5-methyl-1,3,4-oxadiazole]
IC50: ≤ 100 nM

Cc1nnc(-c2ccc3occ(-c4ccc(S(C)(=O)=O)c(F)c4)c3c2)o1 [Example 288, 2-[3-[3-fluoro-4-(methylsulfonyl)phenyl]-1-benzofuran-5-yl]-5-methyl-1,3,4-oxadiazole]
IC50: ≤ 100 nM

CCSc1ccc(-c2coc3ccc(-c4nnc(C)o4)cc23)cc1F [Example 289, 2-[3-[4-(ethylthio)-3-fluorophenyl]-1-benzofuran-5-yl]-5-methyl-1,3,4-oxadiazole]
IC50: ≤ 100 nM

CC[S+]([O-])c1ccc(-c2coc3ccc(-c4nnc(C)o4)cc23)cc1F (stereo not drawn) [Example 290, 2-[3-[4-(ethylsulfinyl)-3-fluorophenyl]-1-benzofuran-5-yl]-5-methyl-1,3,4-oxadiazole]
IC50: ≤ 100 nM

CCS(=O)(=O)c1ccc(-c2coc3ccc(-c4nnc(C)o4)cc23)cc1F [Example 291, 2-[3-[4-(ethylsulfonyl)-3-fluorophenyl]-1-benzofuran-5-yl]-5-methyl-1,3,4-oxadiazole]
IC50: ≤ 100 nM

CSc1ccc(-c2coc3ccc(-c4nnc(C)o4)cc23)cc1Cl [Example 292, 2-[3-[3-chloro-4-(methylthio)phenyl]-1-benzofuran-5-yl]-5-methyl-1,3,4-oxadiazole]
IC50: ≤ 100 nM

Cc1nnc(-c2ccc3occ(-c4ccc([S+](C)[O-])c(Cl)c4)c3c2)o1 (stereo not drawn) [Example 293, 2-[3-[3-chloro-4-(methylsulfinyl)phenyl]-1-benzofuran-5-yl]-5-methyl-1,3,4-oxadiazole]
IC50: ≤ 100 nM

Cc1nnc(-c2ccc3occ(-c4ccc(S(C)(=O)=O)c(Cl)c4)c3c2)o1 [Example 294, 2-[3-[3-chloro-4-(methylsulfonyl)phenyl]-1-benzofuran-5-yl]-5-methyl-1,3,4-oxadiazole]
IC50: ≤ 100 nM

Cc1nnc(-c2ccc3occ(-c4ccc([S+](C)[O-])c(C)c4)c3c2)o1 (stereo not drawn) [Example 296, 2-methyl-5-[3-[3-methyl-4-(methylsulfinyl)phenyl]-1-benzofuran-5-yl]-1,3,4-oxadiazole]
IC50: ≤ 100 nM

Cc1nnc(-c2ccc3occ(-c4ccc(S(C)(=O)=O)c(C)c4)c3c2)o1 [Example 297, 2-methyl-5-[3-[3-methyl-4-(methylsulfonyl)phenyl]-1-benzofuran-5-yl]-1,3,4-oxadiazole]
IC50: ≤ 100 nM

CSc1ccc(-c2coc3ccc(-c4nnc(C)o4)cc23)c(Cl)c1 [Example 298, 2-[3-[2-chloro-4-(methylthio)phenyl]-1-benzofuran-5-yl]-5-methyl-1,3,4-oxadiazole]
IC50: ≤ 100 nM

Cc1nnc(-c2ccc3occ(-c4ccc([S+](C)[O-])cc4Cl)c3c2)o1 (stereo not drawn) [Example 299, 2-[3-[2-chloro-4-(methylsulfinyl)phenyl]-1-benzofuran-5-yl]-5-methyl-1,3,4-oxadiazole]
IC50: ≤ 100 nM

Cc1nnc(-c2ccc3occ(-c4ccc(S(C)(=O)=O)cc4Cl)c3c2)o1 [Example 300, 2-[3-[2-chloro-4-(methylsulfonyl)phenyl]-1-benzofuran-5-yl]-5-methyl-1,3,4-oxadiazole]
IC50: ≤ 100 nM

CCSc1ccc(-c2coc3ccc(-c4nnc(C)o4)cc23)c(Cl)c1 [Example 301, 2-[3-[2-chloro-4-(ethylthio)phenyl]-1-benzofuran-5-yl]-5-methyl-1,3,4-oxadiazole]
IC50: ≤ 100 nM

CC[S+]([O-])c1ccc(-c2coc3ccc(-c4nnc(C)o4)cc23)c(Cl)c1 (stereo not drawn) [Example 302, 2-[3-[2-chloro-4-(ethylsulfinyl)phenyl]-1-benzofuran-5-yl]-5-methyl-1,3,4-oxadiazole]
IC50: ≤ 100 nM

CCS(=O)(=O)c1ccc(-c2coc3ccc(-c4nnc(C)o4)cc23)c(Cl)c1 [Example 303, 2-[3-[2-chloro-4-(ethylsulfonyl)phenyl]-1-benzofuran-5-yl]-5-methyl-1,3,4-oxadiazole]
IC50: ≤ 100 nM

Cc1nnc(-c2ccc3occ(-c4ccc5c(c4)C(C)(C)C[S+]5[O-])c3c2)o1 (stereo not drawn) [Example 305, 2-[3-(3,3-dimethyl-1-oxido-2,3-dihydro-1-benzothien-5-yl)-1-benzofuran-5-yl]-5-methyl-1,3,4-oxadiazole]
IC50: ≤ 100 nM

Cc1nnc(-c2ccc3occ(-c4ccc5c(c4)C(C)(C)CS5(=O)=O)c3c2)o1 [Example 306, 2-[3-(3,3-dimethyl-1,1-dioxido-2,3-dihydro-1-benzothien-5-yl)-1-benzofuran-5-yl]-5-methyl-1,3,4-oxadiazole]
IC50: ≤ 100 nM
